Data published in US20240350434A1, “METHODS FOR TREATING MAJOR DEPRESSIVE DISORDER AND TREATMENT-RESISTANT DEPRESSION” (iX Biopharma Limited, priority 2020, published 2024).
Where “and” joins values, the source holds several entries; their conditions need not be identical. Equal values may be shown once. The name of at least one read-out is uncertain.

Assay: Open label two way randomized crossover pharmacokinetic / absolute bioavailability study, SL ketamine wafer 25 mg vs 10 mg i.v. infusion
Settings: 25 mg sublingually as a wafer
Procedure: The study was of open label two way randomized, crossover design in eight healthy male volunteers who all gave written informed consent. Each participant received either a single 10 mg i.v. dose as a constant rate 30 min infusion or a 25 mg SL dose of ketamine in two treatment periods with a 7 day washout. Both the SL and i.v. doses, and the duration of the i.v. infusion were chosen to ensure adequate characterization of the plasma concentration-time profiles and good quality estimates of pharmacokinetic (PK) variables for both routes of administration. […] The sequence of the two formulations was according to a computer-generated randomization code. […]
Key inclusion criteria were healthy adult males aged 18-65 years with a BMI 19-30 kg m^−2 in good general health including mental health as assessed by the Symptom Checklist-90-R (SCL-90-R®), a screening instrument which evaluates a broad range of psychological problems and symptoms of psychopathology. […]
Safety laboratory testing (biochemistry, haematology and urinalysis) was performed predose and at hour 24 post-dose administration in each period. Quantification of the plasma concentrations of racemic ketamine was performed using a validated HPLC method with u.v. detection, a lower limit of quantification (LLOQ) of 2 ng ml^−1 and <20% bias and imprecision. […]

With `CNC1(c2ccccc2Cl)CCCCC1=O` (racemic) [RS ketamine, ketamine] the “tmax, time of Cmax (SL)” value (individual subjects) was 60 min and 45 min and 30 min and 34.8 min and 15 min and the “tmax, time of Cmax (SL)” value (median of eight healthy volunteers) was 15 min.
